Results are given in words; binding and its absence hold for the method and conditions named. In cells and extracts the contact can be indirect. Here binding means that the protein was enriched with, or labelled near, the bait; the list need not be complete. Sequences can lack the tags named with a protein.
Biological target: T1, human KCASH2, N-terminally HA and Flag tagged (human) (UniProt Q4G0X4)
T1 sequence: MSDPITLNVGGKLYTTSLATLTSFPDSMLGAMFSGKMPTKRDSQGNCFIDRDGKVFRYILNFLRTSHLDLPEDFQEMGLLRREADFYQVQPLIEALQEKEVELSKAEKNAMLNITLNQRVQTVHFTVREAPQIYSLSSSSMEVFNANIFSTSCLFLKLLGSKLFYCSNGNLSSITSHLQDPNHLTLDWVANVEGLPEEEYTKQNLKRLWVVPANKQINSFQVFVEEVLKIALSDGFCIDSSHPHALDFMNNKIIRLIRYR
Assay: affinity purification with mass spectrometry; sequential double co-immunoprecipitation (HA and Flag) of the lysate of HEK293T cells transfected with HA-Flag-KCASH2; MALDI-TOF mass spectrometry; polypeptides with ≥3 peptides selected

B1: Potassium Channel Tetramerization Domain Containing 15 (KCTD15), found in the KCASH2 co-immunoprecipitate of HEK293T cells (protein, UniProt Q96SI1 1-283)
chain: MPHRKERPSGSSLHTHGSTGTAEGGNMSRLSLTRSPVSPLAAQGIPLPAQLTKSNAPVHIDVGGHMYTSSLATLTKYPDSRISRLFNGTEPIVLDSLKQHYFIDRDGEIFRYVLSFLRTSKLLLPDDFKDFSLLYEEARYYQLQPMVRELERWQQEQEQRRRSRACDCLVVRVTPDLGERIALSGEKALIEEVFPETGDVMCNSVNAGWNQDPTHVIRFPLNGYCRLNSVQVLERLFQRGFSVAASCGGGVDSSQFSEYVLCREERRPQPTPTAVRIKQEPLD
  binding: binds

Reference: paper PMC6828672
